Reference: PubChem BioAssay AID330 (DTP/NCI, 2004)
The list is a part of this screen's results and no random one: it is rich in T/C values a quarter to a half above the control, in often repeated tests (any T/C) and in doses without a T/C. Other doses and runs of a compound stand elsewhere. T/C: endpoint of the treated group in % of that of the vehicle group. Some entries give survivors of the animals treated and no T/C: the source files T/C as zero there, which appears to mark a toxic dose or a test without result, not a measured value. Some doses without a T/C left all or most animals alive at the check, yet need not have been tolerated: survival well below the control is almost never listed, so the zero probably covers shortened survival too. Counts of survivors are from the toxicity check (mostly the fifth day) where no day follows; animals may have died later. Schedules are NCI's codes, read here as Q, the interval in days (D) or hours (H), X, the number of doses. Some entries hold several experiments; the values are given in rising order. Where survival is the endpoint, the PubChem record calls one and a half times the control and up active, and a quarter to a half above the control has no call in these data; cut-offs in other NCI protocols can differ. Some T/C values are followed by the survivors on the day toxicity was checked, most often the fifth; without a count, all were alive then.

Test system: P388 leukemia ip, CD2F1 mice, survival T/C
Assay: NCI In Vivo Anticancer Drug Screen. Data for tumor model P388 Leukemia (intraperitoneal) in CD2F1 (CDF1) mice
Details: T/C endpoint: median survival time, higher T/C = longer survival
[1] = dose: 100.0 mg/kg/injection, schedule: Q01DX009 (ip), vehicle: saline with Tween-80
[2] = dose: 400.0 mg/kg/injection, schedule: Q04DX003 (ip), vehicle: saline with Tween-80
[3] = dose: 200.0 mg/kg/injection, schedule: Q01DX001 (ip), vehicle: saline with Tween-80
[4] = dose: 400.0 mg/kg/injection, schedule: Q01DX001 (ip), vehicle: saline with Tween-80
[5] = dose: 200.0 mg/kg/injection, schedule: Q01DX009 (ip), vehicle: saline
[6] = dose: 12.5 mg/kg/injection, schedule: Q01DX009 (ip), vehicle: Klucel (hydroxypropylcellulose) (HPC)
[7] = dose: 25.0 mg/kg/injection, schedule: Q01DX009 (ip), vehicle: Klucel (hydroxypropylcellulose) (HPC)
[8] = dose: 50.0 mg/kg/injection, schedule: Q01DX009 (ip), vehicle: Klucel (hydroxypropylcellulose) (HPC)
[9] = dose: 100.0 mg/kg/injection, schedule: Q01DX009 (ip), vehicle: Klucel (hydroxypropylcellulose) (HPC)
[10] = dose: 200.0 mg/kg/injection, schedule: Q01DX009 (ip), vehicle: Klucel (hydroxypropylcellulose) (HPC)

CN1CCN(CCCN2c3ccccc3Sc3ccc(C(F)(F)F)cc32)CC1
survivor count [1]: 3 of 6 | T/C (dose: 100.0 mg/kg/injection, schedule: Q04DX003 (ip), vehicle: saline with Tween-80): 127 % of control | survivor count (dose: 150.0 mg/kg/injection, schedule: Q04DX003 (ip), vehicle: saline with Tween-80): 3 of 6 | survivor count (dose: 200.0 mg/kg/injection, schedule: Q04DX003 (ip), vehicle: saline with Tween-80): 1 of 6 | survivor count [2]: 0 of 6

C[Si](C)(C)CSC#N
survivor count (dose: 60.0 mg/kg/injection, schedule: Q01DX005 (ip), vehicle: saline with Tween-80): 0 of 6 | survivor count (dose: 120.0 mg/kg/injection, schedule: Q01DX005 (ip), vehicle: saline with Tween-80): 0 of 6 | survivor count (dose: 240.0 mg/kg/injection, schedule: Q01DX005 (ip), vehicle: saline with Tween-80): 0 of 6

CCN(CC)C1C(Br)c2ccccc2C(OC)N1C#N (stereo not drawn)
survivor count (dose: 200.0 mg/kg/injection, schedule: Q01DX005 (ip), vehicle: distilled water + Tween-80 + alcohol): 0 of 6

COc1ccc(C(=O)NCCN2CCN3Cc4[nH]c5ccccc5c4CC3C2)cc1 (stereo not drawn)
survivor count [3]: 6 of 6 | survivor count [4]: 6 of 6

N=C(N)c1cccc([N+](=O)[O-])c1
survivor count [5]: 0 of 6

O=[N+]([O-])c1ccc(S(=O)(=O)OI(O)c2ccccc2)cc1
survivor count (dose: 200.0 mg/kg/injection, schedule: Q01DX009 (ip), vehicle: water): 0 of 6

NC(=O)c1cc([N+](=O)[O-])cc([N+](=O)[O-])c1Cl
survivor count [6]: 3 of 6 | survivor count [7]: 0 of 6 | survivor count [8]: 0 of 6 | survivor count [9]: 0 of 6

CC1CN(C(=S)NNC(C)c2cc3ccccc3cn2)CC(C)O1 (stereo not drawn)
T/C (dose: 50.0 mg/kg/injection, schedule: Q01DX005 (ip), vehicle: saline with Tween-80): 141 and 147 % of control | survivor count (dose: 100.0 mg/kg/injection, schedule: Q01DX005 (ip), vehicle: saline with Tween-80): 0 of 5 and 1 of 6 | survivor count (dose: 200.0 mg/kg/injection, schedule: Q01DX005 (ip), vehicle: saline with Tween-80): 0 of 6

O=[N+]([O-])C1C2C=CC(C2)C1C(Cl)(Cl)Cl (stereo not drawn)
survivor count (dose: 1.56 mg/kg/injection, schedule: Q01DX009 (ip), vehicle: saline with Tween-80): 2 of 6 | survivor count (dose: 3.12 mg/kg/injection, schedule: Q01DX009 (ip), vehicle: saline with Tween-80): 0 of 6 | survivor count (dose: 6.25 mg/kg/injection, schedule: Q01DX009 (ip), vehicle: saline with Tween-80): 0 of 6 | survivor count (dose: 12.5 mg/kg/injection, schedule: Q01DX009 (ip), vehicle: saline with Tween-80): 0 of 6 | survivor count (dose: 25.0 mg/kg/injection, schedule: Q01DX009 (ip), vehicle: saline with Tween-80): 0 of 6 | survivor count (dose: 50.0 mg/kg/injection, schedule: Q01DX009 (ip), vehicle: saline with Tween-80): 0 of 6 | survivor count [1]: 0 of 6 | survivor count (dose: 200.0 mg/kg/injection, schedule: Q01DX009 (ip), vehicle: saline with Tween-80): 0 of 6

CCCS(=O)(=O)N/N=C(\C)c1cccs1
survivor count [10]: 6 of 6

COc1cc2c(c(OC)c1OC)-c1ccc(OC)c(=O)cc1[C@@H](NC(=O)c1ccc([N+](=O)[O-])cc1)CC2
T/C (dose: 0.78 mg/kg/injection, schedule: Q01DX009 (ip), vehicle: Klucel (hydroxypropylcellulose) (HPC)): 130 % of control | T/C (dose: 1.56 mg/kg/injection, schedule: Q01DX009 (ip), vehicle: Klucel (hydroxypropylcellulose) (HPC)): 143 % of control | T/C (dose: 2.0 mg/kg/injection, schedule: Q01DX009 (ip), vehicle: Klucel (hydroxypropylcellulose) (HPC)): 128 % of control | T/C (dose: 3.12 mg/kg/injection, schedule: Q01DX009 (ip), vehicle: Klucel (hydroxypropylcellulose) (HPC)): 134 % of control | T/C (dose: 4.0 mg/kg/injection, schedule: Q01DX009 (ip), vehicle: Klucel (hydroxypropylcellulose) (HPC)): 136 % of control [5 of 6 alive] | T/C (dose: 6.25 mg/kg/injection, schedule: Q01DX009 (ip), vehicle: Klucel (hydroxypropylcellulose) (HPC)): 148 % of control | survivor count [6]: 4 of 6 | survivor count [7]: 2 of 6

CC(=O)Nc1ccc(C(=O)O)c(O)c1.CC(=O)Nc1ccc(C(=O)O)c(O)c1.[Cu]
survivor count (dose: 100.0 mg/kg/injection, schedule: Q01DX001 (ip), vehicle: saline with Tween-80): 0 of 6 | survivor count [3]: 0 of 6 | survivor count [4]: 0 of 6

OCC1OC2OC3C(CO)OC(OC4C(CO)OC(OC5C(CO)OC(OC6C(CO)OC(OC7C(CO)OC(OC8C(CO)OC(OC1C(O)C2O)C(O)C8O)C(O)C7O)C(O)C6O)C(O)C5O)C(O)C4O)C(O)C3O (stereo not drawn)
survivor count [5]: 5 of 6

CC(C)CNS(=O)(=O)c1ncnc2nc[nH]c12
survivor count [2]: 2 of 6

CCCCCCCCN1CSC(=S)N(c2ccc3[nH]c(=S)sc3c2)C1
survivor count [8]: 6 of 6 | survivor count [9]: 2 of 6 | survivor count [10]: 0 of 6

NC(N)=NN=c1/c(=N\N=C(N)N)c2ccccc2/c1=N/N=C(N)N
survivor count (dose: 50.0 mg/kg/injection, schedule: Q01DX001 (ip), vehicle: saline): 2 of 6 | survivor count (dose: 100.0 mg/kg/injection, schedule: Q01DX001 (ip), vehicle: saline): 0 of 6

CC(=O)Oc1ccc(OC(C)=O)c2c(OC(C)=O)c(C(CC=C(C)C)OC(C)=O)cc(OC(C)=O)c12 (stereo not drawn)
survivor count (dose: 50.0 mg/kg/injection, schedule: Q04DX002 (ip), vehicle: saline with Tween-80): 5 of 6
